Experimental data from the supplement of paper PMC12819154, “High-throughput peptide-centric local stability assay extends protein–ligand identification to membrane proteins, tissues and bacteria” (Nature Structural & Molecular Biology, 2025).
The list shows a part of the results. Small differences around the control level are noise.

By UniProt entry, the sequences of proteins in these tests, tags left out. Where a name states a change or a piece, a line headed by the entry shows the natural chain unless it says otherwise.
UniProt Q80W04: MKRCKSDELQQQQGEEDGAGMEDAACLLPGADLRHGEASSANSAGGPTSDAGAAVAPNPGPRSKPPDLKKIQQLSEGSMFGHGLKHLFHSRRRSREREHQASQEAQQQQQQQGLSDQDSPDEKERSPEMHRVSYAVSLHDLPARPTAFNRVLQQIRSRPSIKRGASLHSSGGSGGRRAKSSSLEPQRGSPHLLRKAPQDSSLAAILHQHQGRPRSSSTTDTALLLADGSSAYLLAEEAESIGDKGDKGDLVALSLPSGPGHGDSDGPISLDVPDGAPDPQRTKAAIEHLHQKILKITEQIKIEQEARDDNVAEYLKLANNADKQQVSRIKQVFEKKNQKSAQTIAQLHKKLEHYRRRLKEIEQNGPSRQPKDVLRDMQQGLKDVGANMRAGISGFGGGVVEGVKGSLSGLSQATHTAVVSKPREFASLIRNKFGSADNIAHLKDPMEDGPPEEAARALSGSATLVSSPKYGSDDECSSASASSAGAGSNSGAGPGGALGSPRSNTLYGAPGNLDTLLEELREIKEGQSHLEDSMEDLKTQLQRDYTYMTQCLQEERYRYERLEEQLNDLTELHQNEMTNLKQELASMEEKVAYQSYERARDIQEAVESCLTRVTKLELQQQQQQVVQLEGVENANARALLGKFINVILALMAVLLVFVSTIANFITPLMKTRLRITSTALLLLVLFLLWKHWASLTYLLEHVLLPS
UniProt Q8BHE1: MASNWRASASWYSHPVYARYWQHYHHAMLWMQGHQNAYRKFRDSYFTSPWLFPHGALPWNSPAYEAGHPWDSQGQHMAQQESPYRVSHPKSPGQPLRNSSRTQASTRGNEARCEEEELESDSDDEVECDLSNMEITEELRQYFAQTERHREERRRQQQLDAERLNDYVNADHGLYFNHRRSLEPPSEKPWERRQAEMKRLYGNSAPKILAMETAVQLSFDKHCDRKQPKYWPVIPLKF
UniProt Q80XK6: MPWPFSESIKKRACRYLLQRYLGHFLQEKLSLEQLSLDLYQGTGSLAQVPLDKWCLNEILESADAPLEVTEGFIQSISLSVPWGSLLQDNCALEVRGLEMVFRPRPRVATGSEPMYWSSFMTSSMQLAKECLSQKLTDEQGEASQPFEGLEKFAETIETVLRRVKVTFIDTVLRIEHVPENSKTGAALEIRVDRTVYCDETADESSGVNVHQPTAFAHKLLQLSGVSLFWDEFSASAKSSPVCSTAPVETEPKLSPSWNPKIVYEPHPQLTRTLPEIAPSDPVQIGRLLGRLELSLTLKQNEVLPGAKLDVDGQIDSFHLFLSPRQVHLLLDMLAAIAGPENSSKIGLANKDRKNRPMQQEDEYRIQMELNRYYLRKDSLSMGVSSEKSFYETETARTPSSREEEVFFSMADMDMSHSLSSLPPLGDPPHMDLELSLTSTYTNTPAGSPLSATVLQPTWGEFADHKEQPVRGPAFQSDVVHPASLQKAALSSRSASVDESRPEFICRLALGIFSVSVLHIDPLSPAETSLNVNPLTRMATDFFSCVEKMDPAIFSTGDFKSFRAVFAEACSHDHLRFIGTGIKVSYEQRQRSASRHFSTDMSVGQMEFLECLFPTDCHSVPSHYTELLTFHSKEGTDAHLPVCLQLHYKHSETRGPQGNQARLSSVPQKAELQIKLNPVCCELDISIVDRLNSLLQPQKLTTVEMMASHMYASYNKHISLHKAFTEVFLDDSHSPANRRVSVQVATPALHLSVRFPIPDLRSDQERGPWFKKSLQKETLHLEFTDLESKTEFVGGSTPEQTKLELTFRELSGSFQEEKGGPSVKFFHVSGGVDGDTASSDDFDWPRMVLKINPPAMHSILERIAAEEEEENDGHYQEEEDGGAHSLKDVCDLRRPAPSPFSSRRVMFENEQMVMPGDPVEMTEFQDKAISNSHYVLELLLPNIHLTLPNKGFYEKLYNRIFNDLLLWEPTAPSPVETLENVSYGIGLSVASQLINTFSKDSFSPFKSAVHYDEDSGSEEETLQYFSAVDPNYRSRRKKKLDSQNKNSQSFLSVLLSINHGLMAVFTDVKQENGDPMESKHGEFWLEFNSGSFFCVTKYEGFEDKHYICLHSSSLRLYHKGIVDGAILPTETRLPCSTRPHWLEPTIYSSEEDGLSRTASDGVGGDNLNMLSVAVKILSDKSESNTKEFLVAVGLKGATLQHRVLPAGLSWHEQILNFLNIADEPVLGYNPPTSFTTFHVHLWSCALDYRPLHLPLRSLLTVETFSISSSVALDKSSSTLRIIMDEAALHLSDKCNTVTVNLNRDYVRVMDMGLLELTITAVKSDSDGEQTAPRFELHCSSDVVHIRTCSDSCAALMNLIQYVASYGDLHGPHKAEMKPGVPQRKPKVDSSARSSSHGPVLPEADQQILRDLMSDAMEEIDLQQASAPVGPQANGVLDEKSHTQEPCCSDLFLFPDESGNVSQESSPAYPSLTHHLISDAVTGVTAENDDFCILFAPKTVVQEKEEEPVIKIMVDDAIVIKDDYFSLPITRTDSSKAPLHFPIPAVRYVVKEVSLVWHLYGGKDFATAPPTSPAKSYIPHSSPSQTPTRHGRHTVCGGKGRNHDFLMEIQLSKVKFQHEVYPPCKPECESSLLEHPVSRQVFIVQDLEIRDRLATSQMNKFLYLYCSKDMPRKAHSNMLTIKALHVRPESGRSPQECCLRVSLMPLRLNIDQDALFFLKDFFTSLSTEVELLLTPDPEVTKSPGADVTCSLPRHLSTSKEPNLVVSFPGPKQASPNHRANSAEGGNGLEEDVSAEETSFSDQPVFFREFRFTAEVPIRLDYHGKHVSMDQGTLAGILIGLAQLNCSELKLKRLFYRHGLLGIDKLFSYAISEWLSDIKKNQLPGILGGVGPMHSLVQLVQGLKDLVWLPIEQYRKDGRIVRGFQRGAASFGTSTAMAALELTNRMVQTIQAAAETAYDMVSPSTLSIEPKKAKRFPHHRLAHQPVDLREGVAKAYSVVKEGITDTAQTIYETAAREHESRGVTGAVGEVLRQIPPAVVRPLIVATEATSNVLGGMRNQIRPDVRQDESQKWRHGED
UniProt Q80ZU4: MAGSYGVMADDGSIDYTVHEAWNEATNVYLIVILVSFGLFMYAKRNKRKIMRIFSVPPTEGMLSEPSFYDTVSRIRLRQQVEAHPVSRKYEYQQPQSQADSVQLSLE
UniProt Q80X53: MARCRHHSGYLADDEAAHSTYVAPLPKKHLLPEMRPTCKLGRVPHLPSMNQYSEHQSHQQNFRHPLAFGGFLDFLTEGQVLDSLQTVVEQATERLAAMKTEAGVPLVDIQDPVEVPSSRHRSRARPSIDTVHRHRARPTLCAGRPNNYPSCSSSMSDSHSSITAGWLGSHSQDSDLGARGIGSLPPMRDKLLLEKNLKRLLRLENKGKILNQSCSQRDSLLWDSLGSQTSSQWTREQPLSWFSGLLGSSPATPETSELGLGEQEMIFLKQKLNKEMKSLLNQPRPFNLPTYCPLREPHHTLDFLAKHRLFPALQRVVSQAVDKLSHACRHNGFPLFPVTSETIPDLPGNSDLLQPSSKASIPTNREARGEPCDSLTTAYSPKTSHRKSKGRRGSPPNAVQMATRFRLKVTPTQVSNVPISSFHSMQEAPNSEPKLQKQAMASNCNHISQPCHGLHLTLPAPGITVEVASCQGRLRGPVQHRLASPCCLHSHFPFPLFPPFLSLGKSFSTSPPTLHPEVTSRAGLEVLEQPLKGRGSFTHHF
UniProt Q8BHC7: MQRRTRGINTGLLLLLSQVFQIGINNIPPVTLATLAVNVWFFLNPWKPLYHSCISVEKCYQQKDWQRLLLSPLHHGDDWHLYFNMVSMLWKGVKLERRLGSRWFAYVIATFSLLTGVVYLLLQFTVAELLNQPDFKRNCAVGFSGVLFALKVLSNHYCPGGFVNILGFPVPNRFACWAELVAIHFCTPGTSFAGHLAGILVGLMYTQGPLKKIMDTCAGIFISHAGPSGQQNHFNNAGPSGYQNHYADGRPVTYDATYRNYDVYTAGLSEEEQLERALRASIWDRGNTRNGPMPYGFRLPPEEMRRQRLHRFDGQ
UniProt Q80VV3: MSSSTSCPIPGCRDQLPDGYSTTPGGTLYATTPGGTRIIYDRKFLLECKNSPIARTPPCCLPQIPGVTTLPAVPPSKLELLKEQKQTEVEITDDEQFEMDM
UniProt Q8BFY9: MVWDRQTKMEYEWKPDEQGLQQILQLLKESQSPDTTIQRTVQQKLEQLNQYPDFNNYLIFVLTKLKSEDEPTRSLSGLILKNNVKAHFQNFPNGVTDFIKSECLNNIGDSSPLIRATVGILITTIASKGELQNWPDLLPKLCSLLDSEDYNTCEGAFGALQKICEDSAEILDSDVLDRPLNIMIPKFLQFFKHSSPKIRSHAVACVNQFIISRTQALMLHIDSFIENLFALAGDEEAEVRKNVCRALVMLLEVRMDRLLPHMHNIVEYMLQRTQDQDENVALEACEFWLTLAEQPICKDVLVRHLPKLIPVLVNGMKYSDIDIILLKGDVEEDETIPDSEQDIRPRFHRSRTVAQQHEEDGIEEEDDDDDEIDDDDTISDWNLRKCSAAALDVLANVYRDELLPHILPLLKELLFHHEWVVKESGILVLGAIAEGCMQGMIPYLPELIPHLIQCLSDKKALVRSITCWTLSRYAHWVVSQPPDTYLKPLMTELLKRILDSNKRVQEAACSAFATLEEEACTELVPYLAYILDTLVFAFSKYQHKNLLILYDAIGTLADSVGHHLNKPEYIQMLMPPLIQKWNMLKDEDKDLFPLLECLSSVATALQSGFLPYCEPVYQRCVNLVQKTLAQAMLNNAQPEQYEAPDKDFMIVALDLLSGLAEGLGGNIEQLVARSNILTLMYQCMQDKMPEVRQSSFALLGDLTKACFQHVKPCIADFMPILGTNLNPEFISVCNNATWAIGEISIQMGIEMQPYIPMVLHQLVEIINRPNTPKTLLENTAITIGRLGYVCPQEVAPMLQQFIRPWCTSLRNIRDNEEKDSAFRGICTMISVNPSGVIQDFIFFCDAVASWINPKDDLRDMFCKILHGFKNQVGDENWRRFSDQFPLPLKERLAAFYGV
UniProt Q80ZQ9: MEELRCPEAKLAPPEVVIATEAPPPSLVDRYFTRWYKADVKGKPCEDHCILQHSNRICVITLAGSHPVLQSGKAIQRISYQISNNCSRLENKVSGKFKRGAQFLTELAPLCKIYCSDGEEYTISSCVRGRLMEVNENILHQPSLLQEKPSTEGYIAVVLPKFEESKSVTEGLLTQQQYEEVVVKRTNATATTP
UniProt Q8BGS3: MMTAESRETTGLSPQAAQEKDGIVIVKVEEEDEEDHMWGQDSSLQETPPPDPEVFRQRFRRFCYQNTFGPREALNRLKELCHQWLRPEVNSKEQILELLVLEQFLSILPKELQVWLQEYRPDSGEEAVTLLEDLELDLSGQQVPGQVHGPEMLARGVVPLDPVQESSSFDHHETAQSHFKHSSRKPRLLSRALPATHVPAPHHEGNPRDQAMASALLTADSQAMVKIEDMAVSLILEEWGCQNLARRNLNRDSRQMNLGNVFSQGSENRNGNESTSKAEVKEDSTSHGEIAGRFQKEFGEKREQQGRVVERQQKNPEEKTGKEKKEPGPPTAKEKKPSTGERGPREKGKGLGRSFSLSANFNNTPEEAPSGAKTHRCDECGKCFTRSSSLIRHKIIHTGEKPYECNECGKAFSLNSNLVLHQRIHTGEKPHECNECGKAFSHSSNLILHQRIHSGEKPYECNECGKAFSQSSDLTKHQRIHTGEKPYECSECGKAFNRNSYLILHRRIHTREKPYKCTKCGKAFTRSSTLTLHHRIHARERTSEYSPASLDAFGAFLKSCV
UniProt Q80XQ2: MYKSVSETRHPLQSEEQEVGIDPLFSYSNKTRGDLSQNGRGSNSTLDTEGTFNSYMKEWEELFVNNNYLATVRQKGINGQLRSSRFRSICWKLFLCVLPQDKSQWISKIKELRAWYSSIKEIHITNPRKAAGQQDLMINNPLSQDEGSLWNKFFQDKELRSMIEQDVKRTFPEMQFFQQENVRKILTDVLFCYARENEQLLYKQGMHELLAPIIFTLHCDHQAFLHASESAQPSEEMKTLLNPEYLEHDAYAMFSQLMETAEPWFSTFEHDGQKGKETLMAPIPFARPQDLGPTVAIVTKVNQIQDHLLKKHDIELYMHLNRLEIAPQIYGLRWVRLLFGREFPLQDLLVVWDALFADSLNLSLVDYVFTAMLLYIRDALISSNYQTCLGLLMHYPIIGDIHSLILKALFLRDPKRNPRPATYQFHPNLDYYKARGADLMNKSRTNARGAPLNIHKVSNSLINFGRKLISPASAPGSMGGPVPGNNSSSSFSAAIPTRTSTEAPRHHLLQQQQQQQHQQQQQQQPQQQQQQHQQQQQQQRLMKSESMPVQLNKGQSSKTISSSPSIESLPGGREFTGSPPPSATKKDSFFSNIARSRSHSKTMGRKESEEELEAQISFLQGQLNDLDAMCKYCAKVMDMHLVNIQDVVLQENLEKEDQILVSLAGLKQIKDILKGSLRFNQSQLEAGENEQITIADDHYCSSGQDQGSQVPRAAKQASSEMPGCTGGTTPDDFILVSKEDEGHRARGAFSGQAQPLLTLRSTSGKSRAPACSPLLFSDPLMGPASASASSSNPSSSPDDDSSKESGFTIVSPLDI

Compound: CN[C@@H]1C[C@H]2O[C@@](C)([C@@H]1OC)n1c3ccccc3c3c4c(c5c6ccccc6n2c5c31)C(=O)NC4 [staurosporine]
Test: log2 fold change of tryptic peptide abundance, ligand vs vehicle (limited proteolysis) (log2 ratio); higher = more trypsin-susceptible (destabilized)
Conditions: ligand concentration: 20 uM; sample: mouse liver crude lysate; replicate design: treated separately

Row | Target | log2 fold change
1 | UniProt Q80W04 (peptide sequence: LKEIEQNGPSR, peptide start residue: 358) | 0.359
2 | UniProt Q80W71 (peptide sequence: MKHPIIPIHNSLER, peptide start residue: 200) | 0.416
3 | UniProt Q8BHE1 (peptide sequence: QQQLDAER, peptide start residue: 156) | 0.203
4 | UniProt Q80X89 (peptide sequence: IHHDQPVKPLDR, peptide start residue: 448) | -0.437
5 | UniProt Q8BHA0 (peptide sequence: MASSELSSGPVEK, peptide start residue: 63) | 0.0158
6 | UniProt Q8BG71 (peptide sequence: ILHVHPVK, peptide start residue: 408) | 0.0737
7 | UniProt Q80W54 (peptide sequence: SIDFPLTK, peptide start residue: 244) | -0.359
8 | UniProt Q80XK6 (peptide sequence: IQMELNR, peptide start residue: 366) | -0.251
9 | UniProt Q80ZU4 (peptide sequence: QQVEAHPVSR, peptide start residue: 79) | -0.151
10 | UniProt Q80X19 (peptide sequence: HVFFVDDFDAFKK, peptide start residue: 1189) | 0.115
11 | UniProt Q80X53 (peptide sequence: PSIDTVHR, peptide start residue: 126) | 0.423
12 | UniProt Q8BGH2 (peptide sequence: FYLGGPTSVR, peptide start residue: 337) | 0.406
13 | UniProt Q80YR2 (peptide sequence: ELAAIAFVK, peptide start residue: 749) | -0.155
14 | UniProt Q8BH00 (peptide sequence: EAFPAWSSR, peptide start residue: 56) | 0.112
15 | UniProt Q8BHC7 (peptide sequence: PVTYDATYR, peptide start residue: 251) | 0.512
16 | UniProt Q80YS6 (peptide sequence: ICAFLLR, peptide start residue: 155) | 0.0951

Row | Target | log2 fold change
17 | UniProt Q8BGN5 (peptide sequence: GTTVQPDLK, peptide start residue: 353) | -0.0784
18 | UniProt Q80YV3 (peptide sequence: AQATAQDPVFQK, peptide start residue: 2110) | 0.134
19 | UniProt Q80VV3 (peptide sequence: KFLLECK, peptide start residue: 43) | 0.364
20 | UniProt Q811C2 (peptide sequence: FISAWNNMK, peptide start residue: 16) | -0.0711
21 | UniProt Q80Y44 (peptide sequence: FLQKLEK, peptide start residue: 513) | 0.397
22 | UniProt Q8BGI4 (peptide sequence: KLHDFEDNFFR, peptide start residue: 638) | 0.787
23 | UniProt Q8BFY9 (peptide sequence: LIPVLVNGMK, peptide start residue: 308) | -0.159
24 | UniProt Q80ZQ9 (peptide sequence: ISYQISNNCSR, peptide start residue: 78) | 0.226
25 | UniProt Q80W14 (peptide sequence: DLDDLEALVK, peptide start residue: 166) | 0.295
26 | UniProt Q8BGS3 (peptide sequence: SSTLTLHHR, peptide start residue: 527) | -0.604
27 | UniProt Q80Y83 (peptide sequence: SLTPFMVNIPK, peptide start residue: 638) | -0.193
28 | UniProt Q80Y55 (peptide sequence: SWLQQSYQAVK, peptide start residue: 12) | 0.161
29 | UniProt Q8BGW5 (peptide sequence: GCLTLYTGR, peptide start residue: 84) | -0.105
30 | UniProt Q80XQ2 (peptide sequence: PATYQFHPNLDYYK, peptide start residue: 420) | 0.249
31 | UniProt Q8BHD1 (peptide sequence: LHFEASPHLLDIYPR, peptide start residue: 316) | -0.229

From no. 7 to 8, copied from above:
Row | Target | log2 fold change
7 | UniProt Q80W54 (peptide sequence: SIDFPLTK, peptide start residue: 244) | -0.359
8 | UniProt Q80XK6 (peptide sequence: IQMELNR, peptide start residue: 366) | -0.251
